# Experimental data taken from the supplement of paper PMC8728848.
# The list shows a part of the results.
# B1: SUN4 (Saccharomyces cerevisiae), P53616 (protein)
# chain: MGSSHHHHHHSSGLVPRGSHNGSIYGDLADFSGPYEKFEDGTIPCGQFPSGQGVIPISWLDEGGWSGVENTDTSTGGSCKEGSYCSYACQPGMSKTQWPSDQPSDGRSIGGLLCKDGYLYRSNTDTDYLCEWGVDAAYVVSELSNDVAICRTDYPGTENMVIPTYVQAGDSLPLTVVDQDTYYTWQGLKTSAAYYVNNAGISVEDACVWGSSSSGVGNWAPLNFGAGSSDGVAYLSLIPNPNNGNALNFNVKIVAADDSSTVNGECIYENGSFSGGSDGCTVSVTAGKAKFVLYN
# Experiments:
# Experiment in all cases: glycan array binding signal (z-score within array); higher = stronger binding
# Details in all cases: glycan notation: IUPAC condensed, linker removed; mutation: Q318A
# [1] = molecular target: Gal(b1-3)GlcNAc(b1-2)Man(a1-3)[Gal(b1-3)GlcNAc(b1-2)Man(a1-6)]Man(b1-4)GlcNAc(b1-4)GlcNAc
# Outline: (§1)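 The binding signal is a Z-score computed within each array and averaged over linkers. Arrays of the same protein sequence at different concentrations or buffers were also averaged together. Data originate from 3228 arrays in the Consortium for Functional Glycomics database, kept only where the protein sequence was available.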
# [2] = molecular target: Gal(b1-3)GlcNAc(b1-2)Man(a1-3)[Gal(b1-3)GlcNAc(b1-2)Man(a1-6)]Man(b1-4)GlcNAc(b1-4)[Fuc(a1-6)]GlcNAc
# Outline: as §1
# [3] = molecular target: Gal(b1-3)GlcNAc(b1-2)Man(a1-3)[GlcNAc(b1-4)][Gal(b1-3)GlcNAc(b1-2)Man(a1-6)]Man(b1-4)GlcNAc(b1-4)GlcNAc
# Outline: as §1
# [4] = molecular target: Gal(b1-3)GlcNAc(b1-2)[Gal(b1-3)GlcNAc(b1-6)]Man(a1-6)[Gal(b1-3)GlcNAc(b1-2)Man(a1-3)]Man(b1-4)GlcNAc(b1-4)GlcNAc
# Outline: as §1
# [5] = molecular target: Gal(b1-3)GlcNAc(b1-3)Gal(b1-3)GlcNAc
# Outline: as §1
# [6] = molecular target: Gal(b1-3)GlcNAc(b1-3)Gal(b1-4)Glc
# Outline: as §1
# [7] = molecular target: Gal(b1-3)GlcNAc(b1-3)Gal(b1-4)GlcNAc
# Outline: as §1
# [8] = molecular target: Gal(b1-3)GlcNAc(b1-3)Gal(b1-4)GlcNAc(b1-2)Man(a1-3)[Gal(b1-3)GlcNAc(b1-3)Gal(b1-4)GlcNAc(b1-2)Man(a1-6)]Man(b1-4)GlcNAc(b1-4)GlcNAc
# Outline: as §1
# [9] = molecular target: Gal(b1-3)GlcNAc(b1-3)Gal(b1-4)GlcNAc(b1-2)[Gal(b1-3)GlcNAc(b1-3)Gal(b1-4)GlcNAc(b1-6)]Man(a1-6)[Gal(b1-3)GlcNAc(b1-3)Gal(b1-4)GlcNAc(b1-2)Man(a1-3)]Man(b1-4)GlcNAc(b1-4)[Fuc(a1-6)]GlcNAc
# Outline: as §1
# [10] = molecular target: Gal(b1-3)GlcNAc(b1-3)Gal(b1-4)GlcNAc(b1-3)Gal(b1-4)GlcNAc(b1-2)[Gal(b1-3)GlcNAc(b1-3)Gal(b1-4)GlcNAc(b1-3)Gal(b1-4)GlcNAc(b1-6)]Man(a1-6)[Gal(b1-3)GlcNAc(b1-3)Gal(b1-4)GlcNAc(b1-3)Gal(b1-4)GlcNAc(b1-2)Man(a1-3)]Man(b1-4)GlcNAc(b1-4)[Fuc(a1-6)]GlcNAc
# Outline: as §1
# [11] = molecular target: Gal(b1-3)GlcNAc(b1-3)Gal(b1-4)GlcNAc(b1-6)[Gal(b1-3)GlcNAc(b1-3)]Gal(b1-4)Glc
# Outline: as §1
# [12] = molecular target: Gal(b1-3)GlcNAc(b1-3)Gal(b1-4)[Fuc(a1-3)]GlcNAc
# Outline: as §1
# [13] = molecular target: Gal(b1-3)GlcNAc(b1-3)Gal(b1-4)[Fuc(a1-3)]GlcNAc(b1-6)[Gal(b1-3)GlcNAc(b1-3)]Gal(b1-4)Glc
# Outline: as §1
# [14] = molecular target: Gal(b1-3)GlcNAc(b1-3)GalNAc
# Outline: as §1
# [15] = molecular target: Gal(b1-3)GlcNAc(b1-6)Gal(b1-4)GlcNAc
# Outline: as §1
# [16] = molecular target: Gal(b1-3)GlcNAc(b1-6)GalNAc
# Outline: as §1
# [17] = molecular target: Gal(b1-3)GlcNAc(b1-6)[Gal(b1-3)]GalNAc
# Outline: as §1
# Gal(b1-3)GlcNAc6S = molecular target: Gal(b1-3)GlcNAc6S
# Outline: as §1
# [18] = molecular target: Gal(b1-3)[Fuc(a1-4)]GlcNAc
# Outline: as §1
# [19] = molecular target: Gal(b1-3)[Fuc(a1-4)]GlcNAc(b1-2)Man
# Outline: as §1
# [20] = molecular target: Gal(b1-3)[Fuc(a1-4)]GlcNAc(b1-2)Man(a1-3)[Gal(b1-3)[Fuc(a1-4)]GlcNAc(b1-2)Man(a1-6)]Man(b1-4)GlcNAc(b1-4)[Fuc(a1-6)]GlcNAc
# Outline: as §1
# [21] = molecular target: Gal(b1-3)[Fuc(a1-4)]GlcNAc(b1-3)Gal(b1-3)[Fuc(a1-4)]GlcNAc
# Outline: as §1
# [22] = molecular target: Gal(b1-3)[Fuc(a1-4)]GlcNAc(b1-3)Gal(b1-4)[Fuc(a1-3)]GlcNAc
# Outline: as §1
# [23] = molecular target: Gal(b1-3)[Fuc(a1-4)]GlcNAc(b1-6)GalNAc
# Outline: as §1
# [24] = molecular target: Gal(b1-3)[GlcNAc(b1-6)]GalNAc
# Outline: as §1
# [25] = molecular target: Gal(b1-3)[Neu5Ac(a2-6)]GalNAc
# Outline: as §1
# [26] = molecular target: Gal(b1-3)[Neu5Ac(a2-6)]GlcNAc(b1-4)Gal(b1-4)Glc
# Outline: as §1
# [27] = molecular target: Gal(b1-3)[Neu5Ac(b2-6)]GalNAc
# Outline: as §1
# Gal(b1-4)Gal = molecular target: Gal(b1-4)Gal
# Outline: as §1
# [28] = molecular target: Gal(b1-4)GalNAc(a1-3)[Fuc(a1-2)]Gal(b1-4)GlcNAc
# Outline: as §1
# [29] = molecular target: Gal(b1-4)GalNAc(b1-3)[Fuc(a1-2)]Gal(b1-4)GlcNAc
# Outline: as §1
# Gal(b1-4)Glc = molecular target: Gal(b1-4)Glc
# Outline: as §1
# Gal(b1-4)Glc6S = molecular target: Gal(b1-4)Glc6S
# Outline: as §1
# Gal(b1-4)GlcNAc = molecular target: Gal(b1-4)GlcNAc
# Outline: as §1
# [30] = molecular target: Gal(b1-4)GlcNAc(a1-6)Gal(b1-4)GlcNAc
# Outline: as §1
# Gal(b1-4)GlcNAc(b1-2)Man = molecular target: Gal(b1-4)GlcNAc(b1-2)Man
# Outline: as §1
# [31] = molecular target: Gal(b1-4)GlcNAc(b1-2)Man(a1-3)Man(b1-4)GlcNAc(b1-4)GlcNAc
# Outline: as §1
binder,measurement,setting,value
B1,glycan array binding signal (z-score),[1],-1.04
same,glycan array binding signal (z-score),[2],0.772
same,glycan array binding signal (z-score),[3],0.24
same,glycan array binding signal (z-score),[4],0.517
same,glycan array binding signal (z-score),[5],0.876
same,glycan array binding signal (z-score),[6],0.001
same,glycan array binding signal (z-score),[7],-0.119
same,glycan array binding signal (z-score),[8],1.14
same,glycan array binding signal (z-score),[9],0.027
same,glycan array binding signal (z-score),[10],2.21
same,glycan array binding signal (z-score),[11],-0.223
same,glycan array binding signal (z-score),[12],-0.128
same,glycan array binding signal (z-score),[13],0.399
same,glycan array binding signal (z-score),[14],1.45
same,glycan array binding signal (z-score),[15],-0.212
same,glycan array binding signal (z-score),[16],0.162
same,glycan array binding signal (z-score),[17],-0.256
same,glycan array binding signal (z-score),Gal(b1-3)GlcNAc6S,-0.51
same,glycan array binding signal (z-score),[18],-0.571
same,glycan array binding signal (z-score),[19],-0.021
same,glycan array binding signal (z-score),[20],0.721
same,glycan array binding signal (z-score),[21],-0.237
same,glycan array binding signal (z-score),[22],-0.954
same,glycan array binding signal (z-score),[23],-0.117
same,glycan array binding signal (z-score),[24],-0.486
same,glycan array binding signal (z-score),[25],-0.282
same,glycan array binding signal (z-score),[26],-0.107
same,glycan array binding signal (z-score),[27],0.198
same,glycan array binding signal (z-score),Gal(b1-4)Gal,-0.573
same,glycan array binding signal (z-score),[28],0.701
same,glycan array binding signal (z-score),[29],-0.726
same,glycan array binding signal (z-score),Gal(b1-4)Glc,0.567
same,glycan array binding signal (z-score),Gal(b1-4)Glc6S,0.206
same,glycan array binding signal (z-score),Gal(b1-4)GlcNAc,-0.527
same,glycan array binding signal (z-score),[30],0.299
same,glycan array binding signal (z-score),Gal(b1-4)GlcNAc(b1-2)Man,0.857
same,glycan array binding signal (z-score),[31],-0.13

# A section from further up:
binder,measurement,setting,value
B1,glycan array binding signal (z-score),[15],-0.212
same,glycan array binding signal (z-score),[16],0.162
same,glycan array binding signal (z-score),[17],-0.256
same,glycan array binding signal (z-score),Gal(b1-3)GlcNAc6S,-0.51
same,glycan array binding signal (z-score),[18],-0.571
same,glycan array binding signal (z-score),[19],-0.021
same,glycan array binding signal (z-score),[20],0.721
same,glycan array binding signal (z-score),[21],-0.237
same,glycan array binding signal (z-score),[22],-0.954
